Data taken from article PMC3173395, “Characterization of the latent membrane protein 1 signaling complex of Epstein-Barr virus in the membrane of mammalian cells with bimolecular fluorescence complementation” (Virology Journal, 2011).
These are yes or no findings as the source states them, for the method shown. In cells and extracts the contact can be indirect. Some entries that bind do so weakly or less than the wild type. For some assays here: Tags and fused reporters may be left off the sequences shown.

Columns and labels:
[1] = target: LMP1-NYFP (full-length latent membrane protein 1 fused to NYFP at the C-terminus of LMP1) (Epstein-Barr virus, B95-8 strain) (UniProt P03230); test: split reporter; BiFC (Venus YFP fragments) in HEK-293T cells co-transfected with both plasmids and pmCherry; fixed 24 hours post-transfection; fluorescence and confocal microscopy
[2] = target: LMP1-NYFP (full-length latent membrane protein 1 fused to NYFP at the C-terminus of LMP1) (Epstein-Barr virus, B95-8 strain) (UniProt P03230); test: split reporter; BiFC in HEK-293T cells with the same amount of mCherry tracer plasmid but ten-fold less BiFC plasmids; flow cytometry, YFP histograms of 1 x 10^4 mCherry positive cells (Figures 3 and 5A)
[3] = target: LMP1-NYFP (full-length latent membrane protein 1 fused to NYFP at the C-terminus of LMP1) (Epstein-Barr virus, B95-8 strain) (UniProt P03230); test: split reporter; BiFC by flow cytometry of the HEK-293T cells of the NF-kB reporter assay (co-transfected with pRL-SV40 and pNF-kB-Luc), Figure 5D
[4] = target: NYFP-CTAR1/2 (amino-terminus of YFP fused to the cytoplasmic domain of LMP1, amino acids 184-386) (Epstein-Barr virus, B95-8 strain) (UniProt P03230); test: split reporter; BiFC (Venus YFP fragments) in HEK-293T cells co-transfected with both plasmids and pmCherry; fixed 24 hours post-transfection; fluorescence and confocal microscopy
[5] = target: LMP1-NYFP (full-length latent membrane protein 1 fused to NYFP at the C-terminus of LMP1) (Epstein-Barr virus, B95-8 strain) (UniProt P03230); test: split reporter; BiFC in HEK-293T cells co-transfected with pmCherry; 48 hours post-transfection; flow cytometry, mean fluorescent intensity of YFP of 1 x 10^4 mCherry positive cells (Figure 2A)
[6] = target: 1-231-NYFP (LMP1 amino acids 1 through 231, deleted for CTAR2, NYFP at the C-terminus) (Epstein-Barr virus, B95-8 strain) (UniProt P03230); test: as above
[7] = target: 1-231-NYFP (LMP1 amino acids 1 through 231, deleted for CTAR2, NYFP at the C-terminus) (Epstein-Barr virus, B95-8 strain) (UniProt P03230); test: split reporter; BiFC in HEK-293T cells with the same amount of mCherry tracer plasmid but ten-fold less BiFC plasmids; flow cytometry, YFP histograms of 1 x 10^4 mCherry positive cells (Figures 3 and 5A)
[8] = target: NYFP-CTAR1/2 (amino-terminus of YFP fused to the cytoplasmic domain of LMP1, amino acids 184-386) (Epstein-Barr virus, B95-8 strain) (UniProt P03230); test: split reporter; data not shown: BiFC by fluorescence microscopy in HEK-293T cells, NYFP-CTAR1/2 with TRAFs tagged at their carboxyl-termini
[9] = target: LMP1-NYFP (full-length latent membrane protein 1 fused to NYFP at the C-terminus of LMP1) (Epstein-Barr virus, B95-8 strain) (UniProt P03230); test: split reporter; BiFC in HEK-293T cells with the same amount of mCherry tracer plasmid but ten-fold less BiFC plasmids; flow cytometry, YFP histograms of 1 x 10^4 mCherry positive cells (Figures 3 and 5A); remark: listed apart in the source
[10] = target: 1-231-NYFP (LMP1 amino acids 1 through 231, deleted for CTAR2, NYFP at the C-terminus) (Epstein-Barr virus, B95-8 strain) (UniProt P03230); test: as above; remark: listed apart in the source

Measured: binding

LMP1-NYFP (full-length latent membrane protein 1 fused to NYFP at the C-terminus of LMP1) (from UniProt P03230 1-386)
binds: [1] | [2] | [3]

CYFP-TRAF2 (CYFP fused to the amino-terminus of TRAF2, amino acids 98-501) (from UniProt Q12933-1 98-501) (domain or fragment)
binds: [1] | [4] | [5] | [6] | [2] | [7]

B1: CYFP-TRAF2 (CYFP fused to the amino-terminus of TRAF2, amino acids 98-501) (domain or fragment)
chain: REVESLPAVCPSDGCTWKGTLKEYESCHEGRCPLMLTECPACKGLVRLGEKERHLEHECPERSLSCRHCRAPCCGADVKAHHEVCPKFPLTCDGCGKKKIPREKFQDHVKTCGKCRVPCRFHAIGCLETVEGEKQQEHEVQWLREHLAMLLSSVLEAKPLLGDQSHAGSELLQRCESLEKKTATFENIVCVLNREVERVAMTAEACSRQHRLDQDKIEALSSKVQQLERSIGLKDLAMADLEQKVLEMEASTYDGVFIWKISDFARKRQEAVAGRIPAIFSPAFYTSRYGYKMCLRIYLNGDGTGRGTHLSLFFVVMKGPNDALLRWPFNQKVTLMLLDQNNREHVIDAFRPDVTSSSFQRPVNDMNIASGCPLFCPVSKMEAKNSYVRDDAIFIKAIVDLTGL
binds: [8]

B2: CYFP-TRAF3 (CYFP fused to the amino-terminus of TRAF3, amino acids 345-568) (domain or fragment, UniProt Q13114-1 345-568)
chain: EEADSMKSSVESLQNRVTELESVDKSAGQVARNTGLLESQLSRHDQMLSVHDIRLADMDLRFQVLETASYNGVLIWKIRDYKRRKQEAVMGKTLSLYSQPFYTGYFGYKMCARVYLNGDGMGKGTHLSLFFVIMRGEYDALLPWPFKQKVTLMLMDQGSSRRHLGDAFKPDPNSSSFKKPTGEMNIASGCPVFVAQTVLENGTYIKDDTIFIKVIVDTSDLPDP
binds: [1] | [4] | [9] | [10] | [5] | [6]

B3: TRAF3-CYFP (CYFP at the C-terminus of myc-tagged TRAF3, amino acids 345-568) (domain or fragment, UniProt Q13114-1 345-568)
chain: EEADSMKSSVESLQNRVTELESVDKSAGQVARNTGLLESQLSRHDQMLSVHDIRLADMDLRFQVLETASYNGVLIWKIRDYKRRKQEAVMGKTLSLYSQPFYTGYFGYKMCARVYLNGDGMGKGTHLSLFFVIMRGEYDALLPWPFKQKVTLMLMDQGSSRRHLGDAFKPDPNSSSFKKPTGEMNIASGCPVFVAQTVLENGTYIKDDTIFIKVIVDTSDLPDP
binds: [8]
